Taken from: PubChem BioAssay AID504744 (Drosophila RNAi Screening Center, 2011)

- Test: 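Find genes whose loss alters insulin-driven dAkt phosphorylation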 (primary screen)
- System: Drosophila Kc167 cells
- Reagents: long dsRNA against Drosophila genes, 250 ng dsRNA per well of a 384-well plate
- Duration: 3 days of knock-down, then overnight serum-free starvation before stimulation
- Challenge: bovine insulin at 387 nM for 10 minutes after 12 h without serum
- Measurement: 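In-cell antibody fluorescence for phospho-dAkt in each well over DNA-dye signal, with log2 residuals expressed as z-scores adjusted for cell count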
- Active means: 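Hit in the insulin screen when the two-replicate mean z-score is more extreme than plus or minus 2.5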
The deposit covers about 23,000 reagents; this is a random part of those with a known target gene and a result. In the full data, 98 (0.43%) got an active call. 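Only hit calls are given; the phospho-dAkt signals, z-scores and hit direction were not deposited.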 Names joined by + are all predicted targets of the reagent.

CG18269 [DRSC02660] scored inactive. Silencing of Vha100-1 [DRSC14148] resulted in: inactive. CG9760 [DRSC11101] gave inactive. With knock-down of Nedd4 [DRSC11234], the record shows inactive. Silencing of Nedd4 [DRSC21548] gave: inactive. Knock-down of CG7407 [DRSC11824] gave: inactive.

Silencing of IFT57 [DRSC00720] resulted in: inactive. Silencing of asRNA:CR42743 + CG34162 [DRSC01190] gave: inactive. CG6843 [DRSC10725] scored inactive. After knock-down of List [DRSC06520], the screen gave inactive. Silencing of sut1 [DRSC07700] resulted in: inactive. After knock-down of Sgs5 [DRSC16862], the record shows inactive.

Best4 [DRSC10792] gave inactive. Depletion of CG12511 [DRSC02171] came out at: inactive. Depletion of CG12560 [DRSC02174] came out at: inactive. For Gmppb [DRSC12169] the deposit lists inactive. Silencing of Hs3st-A [DRSC06507] resulted in: inactive. Hs3st-A [DRSC06508] scored inactive.

Silencing of Hs3st-A [DRSC06509] came out at: inactive. Depletion of CG14391 [DRSC14850] gave: inactive. With knock-down of Xxylt [DRSC04107], the screen gave inactive. Against ple [DRSC11383], the values are inactive. CG32983 [DRSC22367] gave inactive.

Copied from the entries so far, 3 entries:
List [DRSC06520] — activity call: inactive
sut1 [DRSC07700] — activity call: inactive
Sgs5 [DRSC16862] — activity call: inactive
